Experimental data as given in patent US9242015B2, “Development and screening of contrast agents for in vivo imaging of Parkinson's disease” (The General Hospital Corporation, priority 2010, dated 2016).
For at least one compound, name, drawing or mass did not settle the structure.

Assays:
[1] = test system: SynT-Syn1 Cell Model; test: SynT-Syn1 cell model staining; format: cell-based
[2] = test system: Syn-GFP Mice; test: Syn-GFP mouse model staining
[3] = test system: Venus-YFPSyn Cell Model; test: Venus-YFPSyn cell model staining; format: cell-based

O=C1NC(=S)NC(=O)C1=C/C=C/C=C/c1c(O)[nH]c(=S)[nH]c1=O [THK-265]
SynT-Syn1 Cell Model [1]: + | Syn-GFP Mice [2]: − | Venus-YFPSyn Cell Model [3]: −
